These are yes or no findings as the source states them, for the method shown. Some results given as binding are weak or reduced against the parent protein; the word gives no strength.
Assays:
[1] = target: 重组CHI3L1蛋白 (壳多糖酶3样蛋白1, chitinase-3-like protein 1) (human) (UniProt P36222); test: sandwich chemiluminescence on CHI3L1 standards, CHI-Ab1 as coating antibody
[2] = target: 重组CHI3L1蛋白 (壳多糖酶3样蛋白1, chitinase-3-like protein 1) (human) (UniProt P36222); test: indirect ELISA screening of hybridoma clones

By UniProt entry, the sequences of proteins in these tests, tags left out. Residues count along the entry.
UniProt P36222, residues 22-383: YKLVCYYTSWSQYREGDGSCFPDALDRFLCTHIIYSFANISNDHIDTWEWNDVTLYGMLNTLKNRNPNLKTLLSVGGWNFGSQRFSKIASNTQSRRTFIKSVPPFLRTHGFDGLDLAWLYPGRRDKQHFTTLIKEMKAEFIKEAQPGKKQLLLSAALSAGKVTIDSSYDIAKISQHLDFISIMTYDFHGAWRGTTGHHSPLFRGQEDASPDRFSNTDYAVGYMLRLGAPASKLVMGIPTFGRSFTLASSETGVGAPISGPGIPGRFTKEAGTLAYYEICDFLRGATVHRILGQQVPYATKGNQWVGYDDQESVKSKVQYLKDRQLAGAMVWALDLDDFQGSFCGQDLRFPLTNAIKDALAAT

B1: 抗人CHI3L1鼠源单克隆抗体 CHI-Ab1 (antibody, V domains shown)
VH: QVQLQQSGTELVKPGASVRLSCTASGFNIKDSYMHWVRQRPDQRLDWIGRIDPSNGNTKYDPKFQGKATITADTSSNTAYLHLSSLTSEDTAVYYCAKDVYWGQGTLVTVSA
VL: DIVMTQSPLSLPVSLGDQASISCRSSQSLVHSDGFTYLHWYLQKPGQPPKLLIYTISNRFSGVPDRVSGSGSGTDFTLKISRVEAEDLGIYFCSQTTHVPLTFGAGTKLELK
For B1, the binding [1] was “binds” and the binding [2] was “binds”.

From patent CN114478785A
